Results reported in article PMC2583255.
Results are given in words; binding and its absence hold for the method and conditions named. In cells and extracts the contact can be indirect. Some binding calls cover weakened binding; strength is not graded here. Blank lines part the entries; values can stand above or below the molecule they belong to.

Protein sequences, listed by entry. Tags and fused reporters are not part of them. Residues count along the entry.
UniProt P12319, residues 26-257: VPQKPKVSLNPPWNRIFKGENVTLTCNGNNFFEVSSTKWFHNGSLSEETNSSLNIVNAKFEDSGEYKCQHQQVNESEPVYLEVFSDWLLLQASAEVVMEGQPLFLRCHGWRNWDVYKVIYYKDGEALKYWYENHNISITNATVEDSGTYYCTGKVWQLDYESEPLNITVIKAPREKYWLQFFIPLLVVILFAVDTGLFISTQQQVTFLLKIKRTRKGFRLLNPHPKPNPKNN
UniProt P30273, residues 19-86: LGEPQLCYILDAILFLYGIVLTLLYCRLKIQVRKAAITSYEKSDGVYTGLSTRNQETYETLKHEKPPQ

Target: High-affinity IgE receptor (FcεRI) α chain (human (endogenous in LAD2)) (UniProt P12319)
Assay: co-IP; LAD2-cell lysate (2 mM L-α-phosphatidylcholine, 10 mM CHAPS, 150 mM NaCl, 50 mM Tris-HCl pH 8.0, protease inhibitors), pre-cleared with protein-G sepharose; 1 μg mouse anti-FcεRI-α monoclonal antibody (CRA1) or isotype-matched mouse IgG2a, 3 h at room temperature, protein-G sepharose 1 h, 5 washes with lysis buffer; non-reducing SDS-PAGE, immunoblot with anti-FcεRI-β or anti-FcεRI-γ

binding: binds
Molecule: High-affinity IgE receptor (FcεRI) γ chain (from UniProt P30273 19-86)

binding: binds
B1: High-affinity IgE receptor (FcεRI) β chain (receptor, UniProt Q01362 1-244)
chain: MDTESNRRANLALPQEPSSVPAFEVLEISPQEVSSGRLLKSASSPPLHTWLTVLKKEQEFLGVTQILTAMICLCFGTVVCSVLDISHIEGDIFSSFKAGYPFWGAIFFSISGMLSIISERRNATYLVRGSLGANTASSIAGGTGITILIINLKKSLAYIHIHSCQKFFETKCFMASFSTEIVVMMLFLTILGLGSAVSLTICGAGEELKGNKVPEDRVYEELNIYSATYSELEDPGEMSPPIDL
